Data: PubChem BioAssay AID248 (DTP/NCI, 2004)
The list is a part of this screen's results and no random one: it gathers tests that were run many times, whatever their T/C, doses with no T/C, and many T/C values between a quarter and a half above the control. Other doses and runs of a compound stand elsewhere. T/C is the treated group as % of the vehicle group. Some entries give survivors of the animals treated and no T/C: the source files T/C as zero there, which appears to mark a toxic dose or a test without result, not a measured value. Some survivor counts are full or nearly so, which does not show that the dose was tolerated: the source hardly ever lists a survival T/C far under the control, and the zero likely stands for such cases as well. Survivors were counted at the toxicity check, usually on the fifth day, unless a day is given; later deaths do not show. Schedules are NCI's codes, read here as Q, the interval in days (D) or hours (H), X, the number of doses. Some schedule codes hold Z or #, which are not explained here. Some entries hold several experiments; their values stand side by side, smallest first.

System: L1210 leukemia ip in BDF1 mice, survival T/C
Test: NCI In Vivo Anticancer Drug Screen. Data for tumor model L1210 Leukemia (intraperitoneal) in B6D2F1 (BDF1) mice
Conditions: T/C endpoint: mean survival time, higher T/C = longer survival
[1] = dose: 200.0 mg/kg/injection, schedule: Q04DX003 (ip), vehicle: saline with Tween-80
[2] = dose: 400.0 mg/kg/injection, schedule: Q04DX003 (ip), vehicle: saline with Tween-80
[3] = dose: 200.0 mg/kg/injection, schedule: Q04DX003 (ip), vehicle: Klucel (hydroxypropylcellulose) (HPC)
[4] = dose: 400.0 mg/kg/injection, schedule: Q04DX003 (ip), vehicle: Klucel (hydroxypropylcellulose) (HPC)
[5] = dose: 400.0 mg/kg/injection, schedule: Q04DX003 (ip), vehicle: saline
[6] = dose: 400.0 mg/kg/injection, schedule: Q01DX009 (ip), vehicle: saline with Tween-80
[7] = dose: 200.0 mg/kg/injection, schedule: Q01DX009 (ip), vehicle: saline with Tween-80
[8] = dose: 100.0 mg/kg/injection, schedule: Q01DX001 (ip), vehicle: saline
[9] = dose: 200.0 mg/kg/injection, schedule: Q01DX001 (ip), vehicle: saline
[10] = dose: 400.0 mg/kg/injection, schedule: Q01DX001 (ip), vehicle: saline
[11] = dose: 400.0 mg/kg/injection, schedule: Q01DX009 (ip), vehicle: Klucel (hydroxypropylcellulose) (HPC)
[12] = dose: 100.0 mg/kg/injection, schedule: Q04DX003 (ip), vehicle: saline with Tween-80

With `CCN(CC)CC(=O)CC12CC3CC(CC(C3)C1)C2` the survivor count (dose: 12.5 mg/kg/injection, schedule: Q04DX002 (ip), vehicle: saline) was 1 of 3, the survivor count (dose: 25.0 mg/kg/injection, schedule: Q04DX002 (ip), vehicle: saline) was 0 of 3 and the survivor count (dose: 50.0 mg/kg/injection, schedule: Q04DX002 (ip), vehicle: saline) was 0 of 3. For the same molecule, the survivor count (dose: 100.0 mg/kg/injection, schedule: Q04DX002 (ip), vehicle: saline) was 0 of 3, the survivor count (dose: 200.0 mg/kg/injection, schedule: Q04DX002 (ip), vehicle: saline) was 0 of 3 and the survivor count (dose: 400.0 mg/kg/injection, schedule: Q04DX002 (ip), vehicle: saline) was 0 of 3.

For `Clc1ccccc1-c1ncc2cnccn12`, the survivor count [1] was 4 of 6 and the survivor count [2] was 0 of 6.

For `CC(=O)S[C@@H]1CC2=CC(=O)CC[C@]2(C)[C@H]2CC[C@@]3(C)[C@@H](CC[C@@]34CCC(=O)O4)[C@H]12`, the survivor count [3] was 6 of 6 and the survivor count [4] was 4 of 6.

In the case of `CC1(C)COCN1CN1COCC1(C)C`, the survivor count [5] is reported as 1 of 6.

For `COC(=O)C(C(=O)OC)C(c1ccccc1)C(Br)(C(=O)OC)C(=O)OC` (stereo unspecified), the survivor count [6] was 5 of 6.

With `N#CC1(C#N)OC(C#N)(C#N)c2ccccc21` the survivor count (dose: 100.0 mg/kg/injection, schedule: Q01DX001 (ip), vehicle: saline with Tween-80) was 0 of 3, the survivor count (dose: 200.0 mg/kg/injection, schedule: Q01DX001 (ip), vehicle: saline with Tween-80) was 0 of 3 and the survivor count (dose: 400.0 mg/kg/injection, schedule: Q01DX001 (ip), vehicle: saline with Tween-80) was 0 of 3.

In the case of `CCOC(=O)N(Cc1ccccc1)C1CC1`, the survivor count (dose: 50.0 mg/kg/injection, schedule: Q04DX003 (ip), vehicle: saline) is reported as 4 of 4.

In the case of `N#Cc1cn(C2OC(CO)C(O)C2O)c2ncnc(N)c12` (stereo unspecified), the survivor count (dose: 0.19 mg/kg/injection, schedule: Q01DX009 (ip), vehicle: saline) is reported as 5 of 6, the survivor count (dose: 0.39 mg/kg/injection, schedule: Q01DX005 (ip), vehicle: saline) is reported as 6 of 6 and the survivor count (dose: 0.78 mg/kg/injection, schedule: Q01DX005 (ip), vehicle: saline) is reported as 5 of 6. For the same molecule, the survivor count (dose: 1.56 mg/kg/injection, schedule: Q01DX005 (ip), vehicle: saline) was 4 of 6, the survivor count (dose: 3.12 mg/kg/injection, schedule: Q01DX005 (ip), vehicle: saline) was 1 of 6 and the survivor count (dose: 6.25 mg/kg/injection, schedule: Q01DX005 (ip), vehicle: saline) was 0 of 6. For the same molecule, the survivor count (dose: 12.5 mg/kg/injection, schedule: Q01DX005 (ip), vehicle: saline) was 0 of 6, the survivor count (dose: 25.0 mg/kg/injection, schedule: Q01DX005 (ip), vehicle: saline) was 0 of 6 and the survivor count (dose: 50.0 mg/kg/injection, schedule: Q01DX005 (ip), vehicle: saline) was 0 of 6. For the same molecule, the survivor count (dose: 100.0 mg/kg/injection, schedule: Q01DX005 (ip), vehicle: saline) was 0 of 6 and the survivor count (dose: 200.0 mg/kg/injection, schedule: Q01DX005 (ip), vehicle: saline) was 0 of 6.

For `NNC(=O)C1C2CCCCC21` (stereo unspecified), the survivor count (dose: 150.0 mg/kg/injection, schedule: Q01DX009 (ip), vehicle: saline with Tween-80) was 0 of 6, the survivor count [1] was 5 of 6 and the survivor count (dose: 225.0 mg/kg/injection, schedule: Q01DX009 (ip), vehicle: saline with Tween-80) was 0 of 6. The survivor count (dose: 335.0 mg/kg/injection, schedule: Q01DX009 (ip), vehicle: saline with Tween-80) was 0 of 6 and the survivor count [2] was 0 of 6.

With `Nc1nc(NCCCc2ccccc2)c(N)c(=O)[nH]1` the survivor count [7] was 2 of 6 and the survivor count [6] was 0 of 6.

With `CC1(C)CC(=O)C(C23C=CC2=C(CO)C(=O)OC3)C1` (stereo unspecified) the survivor count (dose: 50.0 mg/kg/injection, schedule: Q01DX001 (ip), vehicle: saline) was 0 of 4, the survivor count (dose: 80.0 mg/kg/injection, schedule: Q01DX001 (ip), vehicle: saline) was 2 of 4 and the survivor count [8] was 1 of 4. For the same molecule, the survivor count [9] was 0 of 4 and the survivor count [10] was 0 of 4.

`CCC(CC)CC1CN2CCc3cc(OC)c(OC)cc3C2CC1(O)CC` (stereo unspecified) was tested, and the survivor count (dose: 100.0 mg/kg/injection, schedule: Q01DX009 (ip), vehicle: Klucel (hydroxypropylcellulose) (HPC)) was 0 of 6, the survivor count (dose: 100.0 mg/kg/injection, schedule: Q04DX003 (ip), vehicle: Klucel (hydroxypropylcellulose) (HPC)) was 2 of 4 and the survivor count (dose: 200.0 mg/kg/injection, schedule: Q01DX009 (ip), vehicle: Klucel (hydroxypropylcellulose) (HPC)) was 0 of 6. The survivor count [3] was 1 of 4, the survivor count [11] was 0 of 6 and the survivor count [4] was 0 of 4.

In the case of `N#[N+]c1nc2ncnc(N)c2[nH]1`, the survivor count (dose: 50.0 mg/kg/injection, schedule: Q01DX Z (ip), vehicle: saline) is reported as 3 of 8 and the survivor count (dose: 100.0 mg/kg/injection, schedule: Q01DX Z (ip), vehicle: saline) is reported as 1 of 8.

With `CC(C)(C)Nc1ccc(F)cc1` the survivor count (dose: 400.0 mg/kg/injection, schedule: Q04DX002 (ip), vehicle: Klucel (hydroxypropylcellulose) (HPC)) was 0 of 3.

`CCOC(=O)c1ccc(N(CC(O)CN)S(=O)(=O)c2ccc(C)cc2)cc1` (stereo unspecified) was tested, and the survivor count (dose: 100.0 mg/kg/injection, schedule: Q01DX009 (ip), vehicle: saline with Tween-80) was 0 of 6 and 4 of 6, the survivor count [7] was 0 of 6 and the survivor count [6] was 0 of 6.

With `CCOC(=O)C[n+]1ccccc1` the survivor count (dose: 200.0 mg/kg/injection, schedule: Q01DX009 (ip), vehicle: saline) was 0 of 6.

`c1ccc2c(c1)CC([CH2][Hg][CH2]C1Cc3ccccc3O1)O2` (stereo unspecified) was tested, and the survivor count (dose: 400.0 mg/kg/injection, schedule: Q01DX001 (ip), vehicle: carboxymethylcellulose (CMC)) was 0 of 4.

`CSc1nc([N+](=O)[O-])c2cnccn12` was tested, and the survivor count (dose: 50.0 mg/kg/injection, schedule: Q04DX003 (ip), vehicle: saline with Tween-80) was 3 of 6, the survivor count [12] was 4 of 6 and the survivor count [1] was 1 of 6. The survivor count [2] was 1 of 6.

For `CC1CCCC(C)N1C1=NCCO1` (stereo unspecified), the survivor count [12] was 0 of 6, the survivor count [1] was 0 of 6 and the survivor count [2] was 0 of 6.

In the case of `CSc1nc(Cl)cc(N2CC2)n1`, the survivor count (dose: 1.56 mg/kg/injection, schedule: Q01DX009 (ip), vehicle: saline) is reported as 6 of 6, the survivor count (dose: 3.12 mg/kg/injection, schedule: Q04DX003 (ip), vehicle: saline) is reported as 0 of 6 and the survivor count (dose: 6.25 mg/kg/injection, schedule: Q01DX001 (ip), vehicle: saline) is reported as 3 of 6. The survivor count [8] was 0 of 6, the survivor count (dose: 133.0 mg/kg/injection, schedule: Q01DX Z (ip), vehicle: methylcellulose (MC)) was 6 of 6 and the survivor count [9] was 0 of 6. The survivor count (dose: 200.0 mg/kg/injection, schedule: Q01DX Z (ip), vehicle: methylcellulose (MC)) was 1 of 6 and the survivor count [10] was 0 of 6.

`CCCC[n+]1ccc(C(N)=O)cc1` was tested, and the survivor count [5] was 2 of 6.

In the case of `CCc1nnc2cc(C)ccn12`, the survivor count (dose: 400.0 mg/kg/injection, schedule: Q04DX003 (ip), vehicle: other) is reported as 2 of 6.

With `CC(C)C(C)/C=C/C(C)C1CCC2C3CCC4CC(O)CCC4(C)C3CCC12C` (stereo unspecified) the survivor count (dose: 400.0 mg/kg/injection, schedule: Q01DX001 (ip), vehicle: Klucel (hydroxypropylcellulose) (HPC)) was 3 of 3.

In the case of `COc1ncnc(Cl)c1[N+](=O)[O-]`, the survivor count [4] is reported as 3 of 6.

With `CSc1ccc(NCN2C(=O)c3ccccc3C2=O)cc1` the survivor count [11] was 5 of 6.

In the case of `CC/C(=N\[N+](C)(C)C)c1ccccc1`, the survivor count (dose: 150.0 mg/kg/injection, schedule: Q01DX001 (ip), vehicle: saline) is reported as 0 of 6 and the survivor count (dose: 300.0 mg/kg/injection, schedule: Q01DX001 (ip), vehicle: saline) is reported as 0 of 6.

For `S=c1nc[nH]c2nc(N=Nc3cc(Cl)ccc3Cl)[nH]c12`, the survivor count [10] was 3 of 6.
